The results in this text go back to paper PMC7190626.

Protein sequences, listed by entry. Tags and fused reporters are not part of them.
UniProt P25100: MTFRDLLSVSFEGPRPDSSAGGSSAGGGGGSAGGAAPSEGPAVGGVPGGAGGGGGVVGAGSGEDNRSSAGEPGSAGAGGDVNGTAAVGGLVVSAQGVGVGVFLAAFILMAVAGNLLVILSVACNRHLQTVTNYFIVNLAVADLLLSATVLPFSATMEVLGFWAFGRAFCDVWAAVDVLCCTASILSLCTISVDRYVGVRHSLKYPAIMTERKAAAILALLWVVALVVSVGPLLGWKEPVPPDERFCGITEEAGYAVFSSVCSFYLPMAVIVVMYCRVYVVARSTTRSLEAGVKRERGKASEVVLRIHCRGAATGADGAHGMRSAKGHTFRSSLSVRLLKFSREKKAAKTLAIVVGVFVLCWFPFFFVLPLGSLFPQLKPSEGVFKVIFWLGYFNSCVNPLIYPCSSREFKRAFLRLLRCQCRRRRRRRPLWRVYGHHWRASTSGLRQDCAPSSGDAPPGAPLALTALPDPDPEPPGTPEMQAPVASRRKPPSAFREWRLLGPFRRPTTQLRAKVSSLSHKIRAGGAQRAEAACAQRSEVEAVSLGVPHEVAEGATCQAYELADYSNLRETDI
UniProt Q14160: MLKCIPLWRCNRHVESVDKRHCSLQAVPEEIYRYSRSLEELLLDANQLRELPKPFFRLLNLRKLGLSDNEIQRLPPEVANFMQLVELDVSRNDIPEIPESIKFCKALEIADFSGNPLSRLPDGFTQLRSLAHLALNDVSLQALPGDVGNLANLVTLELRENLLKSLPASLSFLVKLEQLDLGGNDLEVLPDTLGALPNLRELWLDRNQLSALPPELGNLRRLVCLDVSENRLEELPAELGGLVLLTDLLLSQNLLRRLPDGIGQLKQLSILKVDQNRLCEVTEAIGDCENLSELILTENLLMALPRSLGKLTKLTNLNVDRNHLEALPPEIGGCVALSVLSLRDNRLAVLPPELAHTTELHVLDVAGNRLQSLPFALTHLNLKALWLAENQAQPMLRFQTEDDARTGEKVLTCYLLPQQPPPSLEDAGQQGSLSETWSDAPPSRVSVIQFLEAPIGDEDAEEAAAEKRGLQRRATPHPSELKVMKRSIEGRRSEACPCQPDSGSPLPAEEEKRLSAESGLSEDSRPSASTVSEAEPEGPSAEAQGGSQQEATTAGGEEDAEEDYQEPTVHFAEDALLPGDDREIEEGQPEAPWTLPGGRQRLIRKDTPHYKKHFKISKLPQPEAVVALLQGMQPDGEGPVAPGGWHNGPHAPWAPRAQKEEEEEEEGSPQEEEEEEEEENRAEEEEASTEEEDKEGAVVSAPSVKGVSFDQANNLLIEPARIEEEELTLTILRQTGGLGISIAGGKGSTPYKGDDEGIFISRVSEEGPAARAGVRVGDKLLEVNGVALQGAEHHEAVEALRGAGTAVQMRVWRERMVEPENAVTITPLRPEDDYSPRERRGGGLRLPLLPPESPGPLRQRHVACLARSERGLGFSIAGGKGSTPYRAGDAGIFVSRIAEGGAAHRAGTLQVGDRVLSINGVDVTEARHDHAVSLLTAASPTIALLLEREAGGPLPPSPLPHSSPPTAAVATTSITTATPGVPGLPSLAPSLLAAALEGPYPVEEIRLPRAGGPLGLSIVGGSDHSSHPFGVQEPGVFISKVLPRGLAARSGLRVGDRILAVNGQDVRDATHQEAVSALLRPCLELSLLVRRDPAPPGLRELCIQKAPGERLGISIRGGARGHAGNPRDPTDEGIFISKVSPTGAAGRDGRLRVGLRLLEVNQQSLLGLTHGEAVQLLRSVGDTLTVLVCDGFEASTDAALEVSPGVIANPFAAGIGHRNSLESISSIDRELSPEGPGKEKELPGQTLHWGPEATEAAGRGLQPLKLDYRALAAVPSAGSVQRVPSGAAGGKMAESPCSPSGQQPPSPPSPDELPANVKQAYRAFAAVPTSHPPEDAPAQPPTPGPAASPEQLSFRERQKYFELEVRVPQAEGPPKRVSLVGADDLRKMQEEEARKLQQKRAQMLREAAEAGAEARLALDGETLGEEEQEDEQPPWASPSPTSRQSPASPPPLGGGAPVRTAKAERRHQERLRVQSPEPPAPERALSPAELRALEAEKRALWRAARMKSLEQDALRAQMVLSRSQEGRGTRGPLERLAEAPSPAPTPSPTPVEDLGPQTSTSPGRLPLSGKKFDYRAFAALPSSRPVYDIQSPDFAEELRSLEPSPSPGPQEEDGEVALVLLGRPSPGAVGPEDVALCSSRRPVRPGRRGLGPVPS

Results are given in words; binding and its absence hold for the method and conditions named. In cells and extracts the contact can be indirect. A yes stands for co-enrichment or nearness to the bait. Other partners may have been found.

The experiment deals with WT SNAP-α1D (N-terminal SNAP-epitope tagged α1D-adrenergic receptor) (UniProt P25100). The experiment is described as follows: affinity purification with mass spectrometry; SNAP-fusion proteins captured covalently from HEK293 lysate (20 mM Tris-HCl pH 8, 200 mM NaCl, 5 mM DTT, 1% NP-40) on SNAP-Capture pull-down resin, 16 hr at 4 °C; on-bead digest with Trypsin and Glu-C; nanoLC-MS/MS.

Turning to scribble (from UniProt Q14160 1-1655), the binding result is “binds”.
